Experimental data from article PMC8534798.

Target: T1, Flag-Foxd4l1.1 (Xenopus) (UniProt Q9PRJ8)
T1 sequence: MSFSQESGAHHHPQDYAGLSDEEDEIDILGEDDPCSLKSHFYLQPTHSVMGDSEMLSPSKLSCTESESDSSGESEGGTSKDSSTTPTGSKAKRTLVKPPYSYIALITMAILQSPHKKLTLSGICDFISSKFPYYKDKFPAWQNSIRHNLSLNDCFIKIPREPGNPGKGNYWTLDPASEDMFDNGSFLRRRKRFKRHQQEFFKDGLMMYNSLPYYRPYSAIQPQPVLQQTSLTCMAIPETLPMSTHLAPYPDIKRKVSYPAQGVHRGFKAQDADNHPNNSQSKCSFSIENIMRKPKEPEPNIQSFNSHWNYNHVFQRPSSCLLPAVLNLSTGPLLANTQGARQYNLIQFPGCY
Assay: co-IP; Xenopus embryos co-injected with Flag-foxd4l1.1 and HA-smad2/HA-smad3 (wild type or truncated) mRNA at the one-cell stage, harvested at stage 10.5 or 11; cleared lysates incubated overnight at 4 °C with anti-Flag, protein A/G beads; Western blot with anti-HA

binding	Substance
no binding	HA-Smad2-ΔC (human) (domain or fragment)
no binding	HA-Smad3-ΔC (human) (domain or fragment)

Results are given in words; binding and its absence hold for the method and conditions named. Binding seen in cells or lysates may run through a third protein. Tags and fused reporters may be left off the sequences shown.
